# Source: PubChem BioAssay (EPA / NIEHS)
# Chains of the proteins cited; added tags and fusions are not shown.
# UniProt P04637, whole entry, looked up: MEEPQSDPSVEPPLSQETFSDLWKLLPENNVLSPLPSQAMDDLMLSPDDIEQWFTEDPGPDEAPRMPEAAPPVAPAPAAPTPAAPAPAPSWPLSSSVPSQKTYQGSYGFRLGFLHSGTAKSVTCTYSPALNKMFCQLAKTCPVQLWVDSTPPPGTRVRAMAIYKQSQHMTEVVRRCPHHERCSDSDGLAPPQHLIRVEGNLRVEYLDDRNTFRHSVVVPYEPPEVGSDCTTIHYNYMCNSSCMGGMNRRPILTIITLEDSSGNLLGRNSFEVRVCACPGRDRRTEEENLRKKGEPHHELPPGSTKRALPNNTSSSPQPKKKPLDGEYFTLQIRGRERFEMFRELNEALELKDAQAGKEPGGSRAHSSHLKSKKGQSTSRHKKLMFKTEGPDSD
# Inconclusive means that the source gave no clear call. Such entries were picked first, then a sample of the others. Where the call is inconclusive, the potency comes from a doubtful curve fit. Activity calls are given as the source filed them. The calls were made as follows: active = hit-call score of the fitted dose curve at least 0.9, where 1 is the maximum; inconclusive = response in the unintended direction; inactive = score below 0.9.
# Molecular target: Cellular tumor antigen p53 (Homo sapiens) (UniProt P04637)
# Assay: TOX21_p53_BLA_p4_ratio: Tox21 HCT-116 p53 Agonism Beta-lactamase Assay, Ratio, Phase 4 (AID 2283601)
# Method in brief: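 Signal is the blue/green (460nm/530nm) ratio of cleaved versus uncleaved CCF4-AM substrate, read after 2 h substrate loading. Cells were HCT116 carrying the p53-responsive beta-lactamase reporter, dosed 16 h at 37C, 5% CO2; CellTiter-Glo measured in parallel.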
Structure (SMILES),AC50,outcome
O=P(O)(O)Oc1ccccc1,inconclusive: 46.1 µM,–
C=C(C)C(=O)O[C@H]1C[C@@H]2CC[C@@]1(C)C2(C)C,inconclusive: 45.8 µM,–
O=C1CC2CC1C1CCCC21 (centres undefined),inconclusive: 46.1 µM,–
CCOC(=O)CCCCCCCCC(=O)OCC,–,inactive
CNC(=S)N(C)C,inconclusive: 48.2 µM,–
O=C(C=Cc1ccccc1)OCc1ccccc1,inconclusive: 23 µM,–

# One compound at a time, from the list above. Order of values: AC50	outcome
# O=C1CC2CC1C1CCCC21 (centres undefined) is listed with inconclusive: 46.1 µM	–
# C=C(C)C(=O)O[C@H]1C[C@@H]2CC[C@@]1(C)C2(C)C is listed with inconclusive: 45.8 µM	–

# Tested on: not listed separately
# Assay: Tanguay_ZF_120hpf_JAW_legacy: (Legacy) Oregon State University Tanguay Lab 120 Hour Post-fertilization zebrafish Assay for Jaw Malformation (AID 2283638);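 as to AC50: active means more embryos with jaw malformation than DMSO controls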
# Method in brief: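 Binary jaw-malformation call at 120 hpf by brightfield microscopy. Embryos (Tropical 5D strain, chorion removed at 4 hpf) were dosed statically at 6 hpf, one per well, at 28C with 0.64% DMSO. Embryos that died were not scored.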
Structure (SMILES),AC50,outcome
O=C(c1ccc(OCCN2CCCCC2)cc1)c1c(-c2ccc(O)cc2)sc2cc(O)ccc12,inconclusive: 2.76 µM,–
C[C@]12CC[C@@H]3c4ccc(O)cc4C[C@@H](CCCCCCCCCS(=O)CCCC(F)(F)C(F)(F)F)[C@H]3[C@@H]1CC[C@@H]2O (some centres undefined),–,inactive
O=C1CCC(C2CCCCC2)CC1,–,inactive
